No constants are given. Whether binding was seen depends on the method and setting. Some results given as binding are weak or reduced against the parent protein; the word gives no strength.
Molecular target: recombinant human IL-27 (human) (UniProt Q14213)
Assay: SPR single cycle kinetics, 1:1 model

Row | Binder | binding
1 | Ab7.4 (antibody, human IgG1, kappa, V domains shown) VH: EVKLVESGGGLVQPGGSLRLSCAASGFTFTSYSMSWVRQAPGKGLEWVAYISYDGGSAYYPDTVKGRFTISRDNSKKTLYLQMSSLKSEDTAMYYCARHGDYDDDDAMDYWGQGTSVTVSS VL: DIQMTQSPSSLSASVGDRVTITCRASENIYSYLAWYQQKQGKAPKLLVYNAETLTEGVPSRFSGSGSGTDFTLTISSLQPEDFANYYCQHHYGTPLTFGQGTKLDIKR | binds
2 | Ab7.5 (antibody, human IgG1, kappa, V domains shown) VH: EVKLVESGGGLVQPGGSLRLSCAASGFTFTSYSMSWVRQAPGKGLEWVAYISYDGGSAYYPDTVKGRFTISRDNSKKTLYLQMSSLKSEDTAMYYCARHGDYDDDDAMDYWGQGTSVTVSS VL: DIQMTQSPSSLSASVGDRVTITCRASENIYSYLAWYQQKPGKAPKLLVYNAETLTEGVPSRFSGSGSGTDFTLTISSLQPEDFANYYCQHHYGTPLTFGQGTKLEIKR | binds
